Reference: the supplement of paper PMC10849652
The other results are listed elsewhere or left out.

Chains of the proteins cited; added tags and fusions are not shown. Lines headed by an entry give the natural chain unless they say otherwise; changes in a name come on top.
UniProt Q15418, whole entry, looked up: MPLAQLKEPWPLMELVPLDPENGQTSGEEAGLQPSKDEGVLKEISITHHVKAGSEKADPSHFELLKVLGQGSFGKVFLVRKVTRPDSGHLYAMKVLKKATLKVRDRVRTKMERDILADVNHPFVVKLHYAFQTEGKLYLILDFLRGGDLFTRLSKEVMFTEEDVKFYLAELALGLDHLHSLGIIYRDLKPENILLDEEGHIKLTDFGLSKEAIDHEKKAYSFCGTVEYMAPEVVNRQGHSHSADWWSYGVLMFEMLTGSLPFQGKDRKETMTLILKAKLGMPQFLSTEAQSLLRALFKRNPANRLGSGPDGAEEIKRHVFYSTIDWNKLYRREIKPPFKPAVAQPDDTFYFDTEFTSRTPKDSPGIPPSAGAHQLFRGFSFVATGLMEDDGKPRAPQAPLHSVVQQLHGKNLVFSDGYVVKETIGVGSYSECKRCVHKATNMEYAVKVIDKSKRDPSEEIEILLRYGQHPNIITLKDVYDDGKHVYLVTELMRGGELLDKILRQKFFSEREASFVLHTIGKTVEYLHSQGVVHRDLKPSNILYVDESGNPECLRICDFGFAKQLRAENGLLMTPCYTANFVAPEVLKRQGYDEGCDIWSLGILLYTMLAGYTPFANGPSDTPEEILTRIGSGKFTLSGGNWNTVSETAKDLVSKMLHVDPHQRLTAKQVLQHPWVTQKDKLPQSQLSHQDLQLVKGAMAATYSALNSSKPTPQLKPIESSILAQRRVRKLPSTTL
UniProt Q96S38: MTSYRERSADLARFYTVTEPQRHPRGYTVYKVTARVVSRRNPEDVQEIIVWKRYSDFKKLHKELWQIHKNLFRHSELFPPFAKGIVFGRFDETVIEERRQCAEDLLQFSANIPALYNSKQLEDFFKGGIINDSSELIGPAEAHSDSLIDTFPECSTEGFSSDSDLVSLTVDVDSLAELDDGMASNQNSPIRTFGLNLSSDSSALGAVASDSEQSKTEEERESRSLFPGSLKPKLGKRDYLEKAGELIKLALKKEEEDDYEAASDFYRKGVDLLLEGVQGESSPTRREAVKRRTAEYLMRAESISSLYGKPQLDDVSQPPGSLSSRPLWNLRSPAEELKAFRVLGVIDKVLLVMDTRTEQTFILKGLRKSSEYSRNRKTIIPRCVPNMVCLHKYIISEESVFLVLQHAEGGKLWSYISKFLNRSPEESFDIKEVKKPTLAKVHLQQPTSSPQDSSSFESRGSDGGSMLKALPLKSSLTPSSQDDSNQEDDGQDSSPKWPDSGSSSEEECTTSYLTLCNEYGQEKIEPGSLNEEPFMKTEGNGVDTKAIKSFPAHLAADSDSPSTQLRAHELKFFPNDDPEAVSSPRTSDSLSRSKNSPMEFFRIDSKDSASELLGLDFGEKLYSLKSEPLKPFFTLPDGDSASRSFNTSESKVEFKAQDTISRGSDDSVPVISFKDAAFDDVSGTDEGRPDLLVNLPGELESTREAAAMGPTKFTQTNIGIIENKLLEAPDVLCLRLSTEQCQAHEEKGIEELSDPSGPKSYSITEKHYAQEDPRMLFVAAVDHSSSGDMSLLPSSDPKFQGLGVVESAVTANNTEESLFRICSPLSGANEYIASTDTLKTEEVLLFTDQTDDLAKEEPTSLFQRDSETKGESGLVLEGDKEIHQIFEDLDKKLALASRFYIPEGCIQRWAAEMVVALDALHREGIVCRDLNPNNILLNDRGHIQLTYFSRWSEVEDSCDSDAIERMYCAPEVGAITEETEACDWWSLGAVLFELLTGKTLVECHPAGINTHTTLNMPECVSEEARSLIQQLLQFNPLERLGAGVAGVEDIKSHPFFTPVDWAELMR
UniProt Q9H4P4: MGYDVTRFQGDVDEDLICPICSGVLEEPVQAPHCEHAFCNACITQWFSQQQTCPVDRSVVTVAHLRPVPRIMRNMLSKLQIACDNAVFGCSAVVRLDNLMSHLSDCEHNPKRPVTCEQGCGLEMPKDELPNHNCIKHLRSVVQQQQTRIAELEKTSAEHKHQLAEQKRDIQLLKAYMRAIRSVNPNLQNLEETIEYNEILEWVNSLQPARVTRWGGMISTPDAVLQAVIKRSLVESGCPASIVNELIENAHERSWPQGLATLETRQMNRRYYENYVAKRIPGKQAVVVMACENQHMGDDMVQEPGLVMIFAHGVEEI
UniProt Q96BH1: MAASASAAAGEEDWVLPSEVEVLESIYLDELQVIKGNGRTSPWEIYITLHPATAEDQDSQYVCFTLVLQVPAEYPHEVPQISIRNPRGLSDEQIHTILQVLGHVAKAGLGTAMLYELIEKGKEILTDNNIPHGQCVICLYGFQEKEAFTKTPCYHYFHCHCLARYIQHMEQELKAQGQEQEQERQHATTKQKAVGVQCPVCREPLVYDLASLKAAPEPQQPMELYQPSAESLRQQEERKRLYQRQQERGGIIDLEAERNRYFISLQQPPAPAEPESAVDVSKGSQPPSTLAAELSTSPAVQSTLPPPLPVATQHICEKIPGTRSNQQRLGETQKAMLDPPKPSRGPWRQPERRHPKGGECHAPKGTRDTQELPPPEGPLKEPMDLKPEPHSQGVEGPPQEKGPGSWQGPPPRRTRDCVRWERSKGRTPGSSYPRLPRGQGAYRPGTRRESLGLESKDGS
UniProt P35244: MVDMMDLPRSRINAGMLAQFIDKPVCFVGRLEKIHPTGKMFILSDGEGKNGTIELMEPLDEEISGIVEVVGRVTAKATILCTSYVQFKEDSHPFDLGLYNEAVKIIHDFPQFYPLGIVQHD
UniProt P31350, whole entry, looked up: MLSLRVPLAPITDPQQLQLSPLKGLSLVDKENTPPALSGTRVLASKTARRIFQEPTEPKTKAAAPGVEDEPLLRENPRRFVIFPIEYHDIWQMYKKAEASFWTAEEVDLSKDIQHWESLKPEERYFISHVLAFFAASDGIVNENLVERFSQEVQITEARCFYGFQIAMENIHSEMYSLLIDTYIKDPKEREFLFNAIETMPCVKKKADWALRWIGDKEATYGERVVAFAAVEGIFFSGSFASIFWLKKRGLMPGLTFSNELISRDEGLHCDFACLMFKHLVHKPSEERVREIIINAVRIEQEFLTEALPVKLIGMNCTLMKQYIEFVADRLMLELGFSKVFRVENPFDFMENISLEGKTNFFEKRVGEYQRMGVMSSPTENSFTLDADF
UniProt P23921: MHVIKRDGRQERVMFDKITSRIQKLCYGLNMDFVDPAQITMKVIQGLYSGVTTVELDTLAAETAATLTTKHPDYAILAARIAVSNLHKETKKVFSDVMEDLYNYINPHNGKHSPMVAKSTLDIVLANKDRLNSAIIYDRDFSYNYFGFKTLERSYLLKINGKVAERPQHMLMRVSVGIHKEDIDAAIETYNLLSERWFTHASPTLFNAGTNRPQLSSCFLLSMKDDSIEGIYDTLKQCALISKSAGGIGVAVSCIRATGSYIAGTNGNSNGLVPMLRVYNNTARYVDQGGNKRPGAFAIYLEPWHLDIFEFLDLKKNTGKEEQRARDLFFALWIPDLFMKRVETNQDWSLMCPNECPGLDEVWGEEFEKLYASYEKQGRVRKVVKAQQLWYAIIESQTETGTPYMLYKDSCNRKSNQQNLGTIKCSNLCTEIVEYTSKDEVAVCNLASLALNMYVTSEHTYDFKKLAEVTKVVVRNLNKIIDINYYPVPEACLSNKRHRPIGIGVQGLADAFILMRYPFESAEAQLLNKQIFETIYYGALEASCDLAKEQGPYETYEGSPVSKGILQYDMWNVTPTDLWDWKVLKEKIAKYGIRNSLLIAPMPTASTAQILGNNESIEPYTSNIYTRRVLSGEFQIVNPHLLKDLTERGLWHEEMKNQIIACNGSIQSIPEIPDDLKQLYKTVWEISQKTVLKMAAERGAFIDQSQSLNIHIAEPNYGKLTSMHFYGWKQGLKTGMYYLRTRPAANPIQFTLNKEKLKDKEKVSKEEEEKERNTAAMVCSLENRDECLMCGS
UniProt Q7LG56, whole entry, looked up: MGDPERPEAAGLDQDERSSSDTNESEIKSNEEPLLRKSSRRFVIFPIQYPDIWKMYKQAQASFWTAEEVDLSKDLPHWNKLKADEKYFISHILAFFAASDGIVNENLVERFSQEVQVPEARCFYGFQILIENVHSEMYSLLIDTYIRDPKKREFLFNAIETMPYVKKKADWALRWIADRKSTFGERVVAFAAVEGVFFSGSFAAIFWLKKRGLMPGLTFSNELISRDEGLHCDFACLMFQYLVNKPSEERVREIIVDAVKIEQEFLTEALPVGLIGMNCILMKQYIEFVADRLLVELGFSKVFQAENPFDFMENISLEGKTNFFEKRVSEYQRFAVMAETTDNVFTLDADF
UniProt Q5VZM2, whole entry, looked up: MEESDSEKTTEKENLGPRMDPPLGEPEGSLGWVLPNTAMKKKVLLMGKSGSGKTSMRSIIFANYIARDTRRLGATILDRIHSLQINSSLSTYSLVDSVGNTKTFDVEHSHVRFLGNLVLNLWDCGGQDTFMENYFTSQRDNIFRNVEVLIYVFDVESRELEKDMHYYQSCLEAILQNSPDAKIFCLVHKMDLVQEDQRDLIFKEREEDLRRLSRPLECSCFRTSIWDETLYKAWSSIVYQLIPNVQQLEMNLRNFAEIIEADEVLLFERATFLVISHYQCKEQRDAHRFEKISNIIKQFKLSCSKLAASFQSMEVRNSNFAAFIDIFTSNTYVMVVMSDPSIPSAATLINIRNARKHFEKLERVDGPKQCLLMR
UniProt P23443: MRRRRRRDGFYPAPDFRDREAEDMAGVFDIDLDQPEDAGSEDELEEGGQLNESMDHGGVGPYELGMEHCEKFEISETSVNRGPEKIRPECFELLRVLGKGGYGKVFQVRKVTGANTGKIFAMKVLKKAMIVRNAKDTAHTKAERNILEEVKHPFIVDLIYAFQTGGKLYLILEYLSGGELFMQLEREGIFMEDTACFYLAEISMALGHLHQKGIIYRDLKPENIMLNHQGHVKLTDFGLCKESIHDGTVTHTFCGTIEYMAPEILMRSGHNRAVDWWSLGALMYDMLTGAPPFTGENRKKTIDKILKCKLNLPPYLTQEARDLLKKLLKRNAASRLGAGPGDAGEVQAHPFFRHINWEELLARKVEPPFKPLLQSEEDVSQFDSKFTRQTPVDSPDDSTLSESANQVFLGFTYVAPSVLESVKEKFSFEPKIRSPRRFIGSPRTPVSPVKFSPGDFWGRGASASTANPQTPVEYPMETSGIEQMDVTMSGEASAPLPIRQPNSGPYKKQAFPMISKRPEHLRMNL
UniProt Q9H6T3, whole entry, looked up: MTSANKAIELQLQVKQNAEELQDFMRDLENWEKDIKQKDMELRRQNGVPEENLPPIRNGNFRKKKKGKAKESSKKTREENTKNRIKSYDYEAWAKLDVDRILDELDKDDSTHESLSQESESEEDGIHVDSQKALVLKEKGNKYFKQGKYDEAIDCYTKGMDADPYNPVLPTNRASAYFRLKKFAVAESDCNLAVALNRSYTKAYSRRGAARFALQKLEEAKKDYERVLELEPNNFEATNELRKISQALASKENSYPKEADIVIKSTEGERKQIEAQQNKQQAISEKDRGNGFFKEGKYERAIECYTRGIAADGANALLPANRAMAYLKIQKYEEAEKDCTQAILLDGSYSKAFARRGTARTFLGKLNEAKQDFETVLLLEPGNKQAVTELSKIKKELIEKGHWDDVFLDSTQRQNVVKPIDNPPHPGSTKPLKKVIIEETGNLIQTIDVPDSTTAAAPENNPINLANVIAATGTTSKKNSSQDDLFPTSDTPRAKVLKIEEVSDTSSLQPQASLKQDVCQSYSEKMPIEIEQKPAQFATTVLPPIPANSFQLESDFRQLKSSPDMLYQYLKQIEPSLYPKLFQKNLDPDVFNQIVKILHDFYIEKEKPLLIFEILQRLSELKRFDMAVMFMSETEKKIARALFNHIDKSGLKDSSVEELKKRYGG

How the values were obtained:
Assay in all cases: log2 fold change, soluble protein after heating vs DMSO (PISA); higher = thermal stabilisation; K562 cells, 10 uM, 30 min; active = over 0.2 and 3.5 SD of the protein, either way, in both replicates (recomputed)
[1] = compound: C1=CC=C(C=C1)[C@H](COC2=CC3=C(C=C2)NC(=O)N3)NC(=O)C4=CC=CN(C4=O)CC5=CC(=C(C=C5)F)F
How it was run: (§1)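 Values are thermal stability changes relative to control samples and are taken from duplicates. They are stated as log2 fold changes. Before quantification by TMTpro 16plex LC-MS/MS with equalised channel sums, K562 cells at 2×10^6 cells/mL were treated with 10 μM compound for 30 min, heated in aliquots for 3 min across 48°C-58°C, pooled, extracted in PBS with 0.5% NP-40 at 4°C, and centrifuged at 21,000xg for 90 min to give the soluble supernatant.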

[2] = compound: CC1=C(SC2=C1C(=N[C@H](C3=NN=C(N32)C)CC(=O)N)C4=CC=C(C=C4)Cl)C
How it was run: as §1

[3] = compound: CC1=C2C(=CC=C1)N=C(N(C2=O)C3=CC=CC=C3C)CN4C=NC5=C(N=CN=C54)N
How it was run: as §1

[4] = compound: Cc1sc2c(c1C)C(c1ccc(Cl)cc1)=N[C@@H](CC(=O)OC(C)(C)C)c1nnc(C)n1-2
How it was run: as §1

[5] = compound: c1ccc([C@@H]2C[C@H]2NC2CCNCC2)cc1
How it was run: as §1

Measured: log2 fold change

RPS18 (UniProt P62269)
inactive: [1] 0.088 | [2] -0.125 | [3] -0.04 | [4] 0.099 | [5] 0.004

RPS6KA1 isoform 2 (UniProt Q15418)
inactive: [1] -0.059 | [2] 0.048 | [3] 0.051 | [4] -0.009 | [5] -0.018

RPS6KC1 (UniProt Q96S38)
inactive: [1] -0.03 | [2] -0.072 | [3] 0.022 | [4] -0.091 | [5] -0.009

RNF41 (UniProt Q9H4P4)
inactive: [1] 0.039

RPL7A (UniProt P62424)
inactive: [1] 0.3 | [2] -0.5 | [3] -0.652 | [4] 0.314 | [5] -0.004

RNF25 (UniProt Q96BH1)
inactive: [1] -0.008 | [2] 0.019 | [3] 0.1 | [4] -0.044 | [5] -0.024

RPA3 (UniProt P35244)
inactive: [1] 0.008 | [2] 0.09 | [3] -0.055 | [4] -0.146 | [5] -0.03

RRM2 isoform 2 (UniProt P31350)
inactive: [1] -0.012 | [2] 0.026 | [3] -0.018 | [4] -0.033 | [5] -0.002

RPS15A (UniProt P62244)
inactive: [1] 0.11 | [2] -0.296 | [3] -0.258 | [4] 0.187 | [5] 0.004

RPL6 (UniProt Q02878)
inactive: [1] 0.281 | [2] -0.411 | [3] -0.6 | [4] 0.326 | [5] -0.008

RRM1 (UniProt P23921)
inactive: [1] -0.011 | [2] 0.029 | [3] -0.033 | [4] -0.023 | [5] 0.011

2 records drawn at random from those above, as already listed:
RPS15A (UniProt P62244)
inactive: [1] 0.11 | [2] -0.296 | [3] -0.258 | [4] 0.187 | [5] 0.004

RRM1 (UniProt P23921)
inactive: [1] -0.011 | [2] 0.029 | [3] -0.033 | [4] -0.023 | [5] 0.011

Next part.

RPL37 (UniProt P61927)
inactive: [1] 0.092 | [2] -0.429 | [3] -0.248 | [4] 0.2 | [5] 0

RRM2B isoform 6 (UniProt Q7LG56)
inactive: [1] 0.01 | [2] 0.05 | [3] 0.056 | [4] -0.054 | [5] 0.032

RPP30 (UniProt Q5VU11)
inactive: [1] -0.123

RPS21 (UniProt P63220)
inactive: [1] -0.008 | [2] -0.047 | [3] 0.028 | [4] 0.017 | [5] 0.02

RPS11 (UniProt P62280)
inactive: [1] 0.12 | [2] -0.292 | [3] -0.285 | [4] 0.18 | [5] 0

RPS13 (UniProt P62277)
inactive: [1] 0.142 | [2] -0.234 | [3] -0.246 | [4] 0.213 | [5] 0

RPL3 (UniProt P39023)
inactive: [1] 0.274 | [2] -0.521 | [3] -0.601 | [4] 0.358 | [5] -0.001

RPL36A (UniProt P83881)
inactive: [1] 0.198 | [2] -0.286 | [3] -0.323 | [4] 0.218 | [5] 0

RPL30 (UniProt P62888)
inactive: [1] 0.236 | [2] -0.551 | [3] -0.581 | [4] 0.295 | [5] 0

RPS6 (UniProt P62753)
inactive: [1] 0.116 | [2] -0.241 | [3] -0.687 | [4] 0.116 | [5] 0

RPLP0 (UniProt P05388)
inactive: [1] 0.243 | [2] -0.523 | [3] -0.573 | [4] 0.281 | [5] 0

RRAGB (UniProt Q5VZM2)
inactive: [1] 0.046 | [2] -0.028 | [3] -0.088 | [4] -0.01 | [5] 0.02

RPS6KB1 (UniProt P23443)
inactive: [1] -0.072 | [2] 0.032 | [3] 0.002 | [4] -0.003 | [5] -0.029

RPAP3 (UniProt Q9H6T3)
inactive: [1] -0.095 | [2] 0.029 | [3] 0.052 | [4] 0.029 | [5] -0.016

RPS29 (UniProt P62273)
inactive: [1] 0.053 | [2] -0.309 | [3] -0.185 | [4] 0.109 | [5] -0.058
